The results in this text go back to paper PMC11046306, “METTL17 is an Fe-S cluster checkpoint for mitochondrial translation” (Molecular cell, 2024).

Results are given in words; binding and its absence hold for the method and conditions named. Sequences can lack the tags named with a protein.

This assay concerns the target human METTL17-8XHIS (human) (UniProt Q9H7H0). Description: SEC; analytical gel filtration of purified METTL17-8XHIS on Superdex 200 increase 10/300 GL; both purified.

B1: human METTL17-8XHIS (protein, UniProt Q9H7H0 28-456)
chain: AALVPGVTQVDNKSGFLQKRPHRQHPGILKLPHVRLPQALANGAQLLLLGSAGPTMENQVQTLTSYLWSRHLPVEPEELQRRARHLEKKFLENPDLSQTEEKLRGAVLHALRKTTYHWQELSYTEGLSLVYMAARLDGGFAAVSRAFHEIRARNPAFQPQTLMDFGSGTGSVTWAAHSIWGQSLREYMCVDRSAAMLVLAEKLLKGGSESGEPYIPGVFFRQFLPVSPKVQFDVVVSAFSLSELPSKADRTEVVQTLWRKTGHFLVLVENGTKAGHSLLMDARDLVLKGKEKSPLDPRPGFVFAPCPHELPCPQLTNLACSFSQAYHPIPFSWNKKPKEEKFSMVILARGSPEEAHRWPRITQPVLKRPRHVHCHLCCPDGHMQHAVLTARRHGRDLYRCARVSSWGDLLPVLTPSAFPPSTAQDPSES
B1: the binding result is recorded as “no binding”.
